The assay in a line: qHTS Assay for Modulators of Lamin A Splicing. Particulars: HeLa LMNA splicing GFP/RFP minigene ratio, 48 h. Summed up: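 S3 HeLa cells stably expressing lamin A-EGFP splicing minigene plus DsRed2, 600 cells/well, 48 h compound exposure at 37C. Laser-scanning cytometry; analysed as GFP (500-530 nm)/RFP (575-640 nm) total intensity ratio; 0.5% DMSO vehicle.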
On the technique in general: qHTS replaces the single test concentration by a dilution series.

The mark [1] stands for this setting: measured here: GFP splicing reporter channel.
The mark [2] stands for this setting: measured here: RFP viability control channel.

The list shows a part of the results. Shown are side measurements of this screen, not its main read-out; they come without a call. The list favours compounds with an active or inconclusive main result. Words in brackets tell the shape of the fitted curve; partial curves, single points and poor fits give uncertain potencies.

Usually AC50 stands for the midpoint of the concentration-response curve, whichever way the signal moves. Regarding `Cc1nn(-c2ccccc2)cc1C(=S)Nc1ccccc1`, the AC50 reads like this: under setting [1], 15.8 µM [rising, single point]; under setting [2], 35.5 µM [rising, single point].

In the case of `Brc1ccc(NCc2cccc3ccccc23)nc1`, the AC50 under setting [1] is 20 µM [rising, partial curve] and the AC50 under setting [2] is 35.5 µM [rising, single point].

For the molecule `CCn1cc2c(n1)-c1c(oc(C(=O)Nc3cccc(C(F)(F)F)c3)c1C)CC2`, the AC50 is, setting by setting: under setting [1], 35.5 µM [falling, single point]; under setting [2], 35.5 µM [falling, single point].

With `COCCCN(C(=S)Nc1cccc(Cl)c1)C(C)c1ccncc1` (stereo unspecified), the AC50 under setting [2] is 17.8 µM [rising, single point].

`CC(C)c1ccc(/C=N/NC(=O)c2nnn(-c3nonc3N)c2CSC2=NCCS2)cc1`: the AC50 is 22.4 µM [rising, partial curve, poor fit] under setting [1] and 0.891 µM [rising, partial curve, poor fit] under setting [2].

Take `CN1CCc2cc3c(c4c2[C@H]1[C@H](O)c1ccccc1-4)OCO3`: the AC50 under setting [2] was 10 µM [rising, partial curve].

In the case of `CC(C)(C(N)=O)N1CCN(c2ncc(C(F)(F)F)cc2Cl)CC1`, the AC50 under setting [2] is 15.8 µM [rising, partial curve].

Consider `O=C(CC1C(=O)N(c2ccc(Cl)cc2)C(=S)N1CCc1ccncc1)Nc1ccc(F)cc1` (stereo unspecified), for which the AC50 runs as follows: under setting [1], 22.4 µM [falling, partial curve]; under setting [2], 22.4 µM [falling, partial curve].

Turning to `CCOC(=O)c1c(C)oc2c1C(=O)c1ccccc1C2=O`, the AC50 by setting is: under setting [1], 12.6 µM [falling, partial curve]; under setting [2], 5.62 µM [falling, full curve].

In the case of `c1ccc2c(c1)OCC(c1nnc3sc(-c4ccc5c(c4)OCO5)nn13)O2` (stereo unspecified), the AC50 is, setting by setting: under setting [1], 5.62 µM [rising, single point]; under setting [2], 5.62 µM [rising, single point].

Turning to `Cc1cn2c(=O)cc(COC(=O)c3cccc(NC(=O)c4ccccc4C)c3)nc2s1`, under setting [1], the AC50 was 0.00316 µM [rising, full curve, poor fit].

Take `Cc1ccc(-n2cccc2/C=C2\C(=N)N3N=C(c4ccco4)SC3=NC2=O)cc1`: the AC50 under setting [1] was 0.0398 µM [falling, full curve].

With `CCC1C/C(=C\c2cccnc2)C(=O)/C(=C/c2cccnc2)C1` (stereo unspecified), the AC50 under setting [2] was 4.47 µM [rising, full curve].

As to `O=C(NCc1ccco1)c1ccc(CS(=O)(=O)Cc2ccc(Cl)cc2)o1`, the AC50 under setting [1] was 7.94 µM [rising, partial curve].

Turning to `COc1cc(C(=O)c2nccc3cc(OC)c(OC)cc23)c([N+](=O)[O-])cc1OC`, the AC50 under setting [2] is 3.98 µM [rising, single point].

Consider `Cc1cc(C)c(S(=O)(=O)Nc2ccc(O)c(Sc3ncn[nH]3)c2)c(C)c1`, for which, under setting [2], the AC50 was 35.5 µM [rising, single point].

Take `COCCCNC(=O)C1CCN(c2nc3ccc(C)cc3[nH]2)CC1`: the AC50 was 0.562 µM [rising, full curve] under setting [1] and 0.794 µM [rising, full curve, poor fit] under setting [2].

In the case of `COCCN(Cc1nc(-c2ccc(C(F)(F)F)cc2)no1)C(C)C`, the AC50 under setting [1] was 2.82 µM [falling, partial curve].

Turning to `COc1ccc(/C=N\NC(=O)c2c(C)nc3ccc(Br)cn23)cc1`, the AC50 by setting is: under setting [1], 1.26 µM [rising, full curve]; under setting [2], 1.78 µM [rising, full curve].

As to `C/C(=N\NC(=O)OC(C)(C)C)c1ccc(-n2ccnc2)cc1`, the AC50 under setting [1] is 0.00398 µM [rising, full curve, poor fit].

In the case of `O=C(c1ccc(Cl)cc1)c1cnc(Nc2ccccc2Cl)s1`, the AC50 runs as follows: under setting [1], 17.8 µM [falling, single point]; under setting [2], 28.2 µM [falling, single point].

`CC1(C)NC(=O)N(c2ccc([N+](=O)[O-])c(C(F)(F)F)c2)C1=O`: the AC50 by setting is: under setting [1], 2 µM [falling, full curve, poor fit]; under setting [2], 1.78 µM [falling, full curve, poor fit].

For `CCCCCCc1ccc(O)cc1O`, the AC50 under setting [1] was 0.562 µM [falling, full curve].

As to `CC(C)OC(=O)c1ccc(NC(=O)CSc2nc3ncccc3[nH]2)cc1`, the AC50 is, setting by setting: under setting [1], 3.98 µM [falling, partial curve]; under setting [2], 0.00501 µM [falling, full curve, poor fit].

In the case of `O=C(c1nsc(Cl)c1Cl)N1CCCCC1`, the AC50 under setting [1] was 31.6 µM [rising, single point].

On to `CC1CCN(C(=O)COC(=O)c2ccc3c(c2)OCO3)CC1`, for which the AC50 under setting [2] was 0.562 µM [falling, full curve, poor fit].

`COc1cc2c(cc1OC)CN(c1ccc(-c3ccccc3OC)nn1)CC2`: the concentration at half-maximal activity (AC50) runs as follows: under setting [1], 11.2 µM [rising, single point]; under setting [2], 31.6 µM [rising, single point].

With `CC(C)c1cnc2c(c1SCC(=O)Nc1cccc(F)c1)c(=O)n(C)c(=O)n2C`, the AC50 under setting [1] is 0.447 µM [rising, full curve, poor fit] and the AC50 under setting [2] was 0.398 µM [rising, full curve, poor fit].

For `CC1Cc2ccccc2N1Cc1nc2cc(C(F)(F)F)ccc2c(=O)[nH]1` (stereo unspecified), the AC50 runs as follows: under setting [1], 12.6 µM [falling, partial curve]; under setting [2], 25.1 µM [falling, partial curve].

Take `CC1CCCCN1C(=O)c1ccc(C(=O)N2CCCCC2C)cc1` (stereo unspecified): the AC50 under setting [1] was 20 µM [rising, single point].

For `O=C(CN1C(=O)C2CC=CCC2C1=O)Nc1ccc(-c2nnc3n2CCCCC3)cc1` (stereo unspecified), the AC50 under setting [2] was 0.00224 µM [falling, full curve, poor fit].

With `Cc1cc(Nc2ccc(Cl)cc2)nc(NCc2ccccc2)n1`, the AC50 by setting is: under setting [1], 15.8 µM [rising, partial curve]; under setting [2], 17.8 µM [rising, partial curve].

Consider `CS(=O)(=O)N1CCN(c2ccc([N+](=O)[O-])cc2F)CC1`, for which the AC50 under setting [1] is 22.4 µM [falling, partial curve, poor fit] and the AC50 under setting [2] is 31.6 µM [falling, partial curve, poor fit].

Turning to `COc1ccc(/C=C/S(=O)(=O)NCc2ccccc2)cc1OC`, the AC50 under setting [2] was 4.47 µM [falling, single point].

Consider `CCCN(CCC)S(=O)(=O)c1ccc(C(=O)Nc2sc3c(c2C(=O)OC)CCN(CC)C3)cc1`, for which the AC50 under setting [1] was 20 µM [falling, partial curve, poor fit].

In the case of `CC12CCC(C(=O)N3CCCc4ccccc43)(CC1=O)C2(C)C` (stereo unspecified), the AC50 under setting [1] is 35.5 µM [rising, single point] and the AC50 under setting [2] is 22.4 µM [rising, single point].

Consider `COc1ccccc1N(CC(=O)Nc1ccc2c(c1)OCO2)S(=O)(=O)c1ccccc1`, for which the AC50 reads like this: under setting [1], 20 µM [rising, partial curve, poor fit]; under setting [2], 20 µM [rising, partial curve, poor fit].

With `CCCCn1c(N)c(S(=O)(=O)c2ccc(C)cc2)c2nc3ccccc3nc21`, the AC50 under setting [1] is 31.6 µM [rising, single point] and the AC50 under setting [2] was 35.5 µM [rising, single point].

With `O=C(CN1CC[n+]2c(-c3cccs3)csc21)c1ccc(Br)cc1`, under setting [2], the AC50 was 35.5 µM [rising, single point].

With `COc1cc(CN2CCCC(C(=O)c3ccc4c5c(cccc35)CC4)C2)cc(OC)c1O` (stereo unspecified), the half-maximal activity concentration (AC50) under setting [1] is 1.12 µM [falling, partial curve].

For the molecule `O=C(NCCc1ccc(Cl)cc1)C(=O)NCC(c1ccco1)S(=O)(=O)c1ccc(Cl)cc1` (stereo unspecified), under setting [2], the AC50 is 10 µM [falling, partial curve].

On to `CC(C)C(=O)N1CCN(c2nc(-c3ccc(Cl)cc3)cs2)CC1`, for which the AC50 under setting [1] was 0.355 µM [rising, full curve, poor fit].

On to `CCOc1ccc(Br)cc1S(=O)(=O)Nc1ccc(Cl)c(S(=O)(=O)N(CC)c2ccccc2)c1`, for which the AC50 under setting [2] is 35.5 µM [rising, single point].

Take `CC(C)(C)n1nnnc1C(c1cccs1)N1CCCc2ccccc21` (stereo unspecified): the AC50 under setting [1] was 22.4 µM [rising, partial curve, poor fit].

As to `CN(C(=O)CSc1nnc(-c2ccccc2F)o1)C1CCCCC1`, the AC50 under setting [1] is 0.0282 µM [rising, full curve].

On to `O=C(Nc1ccc(N2CCOCC2)cc1)C1(c2ccc(Cl)cc2)CCC1`, for which, under setting [2], the AC50 is 35.5 µM [rising, single point].

As to `CCCCCCOc1ccc(OC(=O)c2ccncc2)cc1`, the AC50 under setting [2] was 22.4 µM [rising, single point].

Regarding `O=C(/C=C/Nc1ccccc1Br)c1ccccn1`, under setting [1], the AC50 is 17.8 µM [rising, single point].

For the molecule `NC(=O)c1c(NC(=O)CSc2nnc(-c3ccco3)n2-c2ccccc2)sc2c1CCC2`, under setting [2], the AC50 was 15.8 µM [rising, single point].

As to `O=C(NC(Cc1c[nH]c2ccccc12)C(=O)Nc1ccc(OC(F)(F)F)cc1)c1cccs1` (stereo unspecified), under setting [2], the AC50 was 31.6 µM [rising, single point].

For the molecule `COc1ccc(-c2noc(CCCOc3ccc(Cl)cc3Cl)n2)cc1`, the AC50 under setting [2] is 31.6 µM [rising, single point].

Take `c1ccc2oc(-c3ccc(Nc4nc(N5CCCCC5)nc(N5CCOCC5)n4)cc3)nc2c1`: under setting [1], the AC50 was 35.5 µM [rising, single point].

For the molecule `COc1cc(NC(=O)Nc2cccc(-c3noc(C)n3)c2)cc(OC)c1OC`, the AC50 under setting [1] is 0.794 µM [falling, partial curve].

Consider `COc1ccccc1Nc1nnc(SCC(=O)c2cc(C)n(CC3CCCO3)c2C)s1` (stereo unspecified), for which the AC50 under setting [1] was 4.47 µM [rising, partial curve, poor fit] and the AC50 under setting [2] was 12.6 µM [rising, partial curve, poor fit].

Regarding `Cc1ccc(NCc2nnc(SCC(=O)N3c4ccccc4Sc4ccccc43)o2)c(C)c1`, the AC50 under setting [2] was 22.4 µM [rising, partial curve, poor fit].
